# Measured values from the supplement of paper PMC8728848.
# The list shows a part of the results.
# B1: PX14343E-bfa-545-24-545 (Bacteroides fragilis) (protein)
# chain: LDRYPQEELSDGSFWKTPDDANKVVSDLYGYLSTWDQDNDINSDNATMGIKWAAGNVSKGIYDPADQGWSGDYANVRQCNLILSKIDEIPDYPEADKTKALGQVYFFRAYIYFNLIRSFGDVPYIDKPLDLKDMEGITRMPRAEVYEKIMADFDKAIAALPTEWGASDYGRVTKGAAMAMKARAALYYGNWDTAATEAKNVMDLGLYELYDKDNTGKYAELFWEKADGCDEFILVTQFNYPDKTHYLMGWECFPTKGWGGMNPTQSLVDAFEDSEGAPISKSKIYDPTDPFKNRDPRLEVDILHDGEEMYGVTIKVAPLASSGSTGINQHNDATETGYYGQKWLDPSLDPLSDGWNMGKDWVHIRYAEVLLTYAEAKNELQGLDPEAFDAVNQVRRRVGMPELQNTDPSKPTYCATQDDLRQRIRNEWRVEFCLEGGKRMWDIRRWGIAKDVLNAPFEGLKYKIVDNPNDPDKKVDGGKMCILYQGDPIILSGSRYSDNNYLFPVPQSEIDLNPALTQNPGY
# Tests used:
# Test in all cases: glycan array binding signal (z-score within array); higher = stronger binding
# Details in all cases: glycan notation: IUPAC condensed, linker removed
# [1] = target: Neu5Ac(a2-3)Gal(b1-3)[Fuc(a1-4)]GlcNAc
# Procedure, shortened: (§1)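 Negative Z-scores can be read as non-binding. The Z-score is calculated within each array and then averaged across arrays of one protein sequence at different concentrations or buffers and across linkers. Arrays, 3228 in all, were curated from the Consortium for Functional Glycomics database and kept only where the protein sequence was available.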
# [2] = target: Neu5Ac(a2-3)Gal(b1-3)[Fuc(a1-4)]GlcNAc(b1-3)Gal(b1-3)[Fuc(a1-4)]GlcNAc
# Procedure, shortened: as §1
# [3] = target: Neu5Ac(a2-3)Gal(b1-3)[Fuc(a1-4)]GlcNAc(b1-3)Gal(b1-4)[Fuc(a1-3)]GlcNAc
# Procedure, shortened: as §1
# [4] = target: Neu5Ac(a2-3)Gal(b1-3)[GlcNAc(b1-6)]GalNAc
# Procedure, shortened: as §1
# [5] = target: Neu5Ac(a2-3)Gal(b1-3)[Neu5Ac(a2-6)]GalNAc
# Procedure, shortened: as §1
# [6] = target: Neu5Ac(a2-3)Gal(b1-3)[Neu5Ac(a2-6)]GlcNAc(b1-3)[Fuc(a1-3)[Gal(b1-4)]GlcNAc(b1-6)]Gal(b1-4)Glc
# Procedure, shortened: as §1
# [7] = target: Neu5Ac(a2-3)Gal(b1-3)]Neu5Ac(a2-3)Gal(b1-4)]GlcNAc
# Procedure, shortened: as §1
# Neu5Ac(a2-3)Gal(b1-4)Glc = target: Neu5Ac(a2-3)Gal(b1-4)Glc
# Procedure, shortened: as §1
# [8] = target: Neu5Ac(a2-3)Gal(b1-4)GlcNAc
# Procedure, shortened: as §1
# [9] = target: Neu5Ac(a2-3)Gal(b1-4)GlcNAc(b1-2)Man
# Procedure, shortened: as §1
# [10] = target: Neu5Ac(a2-3)Gal(b1-4)GlcNAc(b1-2)Man(a1-3)[GlcNAc(b1-4)][Neu5Ac(a2-3)Gal(b1-4)GlcNAc(b1-2)Man(a1-6)]Man(b1-4)GlcNAc(b1-4)GlcNAc
# Procedure, shortened: as §1
# [11] = target: Neu5Ac(a2-3)Gal(b1-4)GlcNAc(b1-2)Man(a1-3)[Neu5Ac(a2-3)Gal(b1-4)GlcNAc(b1-2)Man(a1-6)]Man(b1-4)GlcNAc(b1-4)GlcNAc
# Procedure, shortened: as §1
# [12] = target: Neu5Ac(a2-3)Gal(b1-4)GlcNAc(b1-2)Man(a1-3)[Neu5Ac(a2-3)Gal(b1-4)GlcNAc(b1-2)Man(a1-6)]Man(b1-4)GlcNAc(b1-4)[Fuc(a1-6)]GlcNAc
# Procedure, shortened: as §1
# [13] = target: Neu5Ac(a2-3)Gal(b1-4)GlcNAc(b1-2)Man(a1-3)[Neu5Ac(a2-6)Gal(b1-4)GlcNAc(b1-2)Man(a1-6)]Man(b1-4)GlcNAc(b1-4)GlcNAc
# Procedure, shortened: as §1
# [14] = target: Neu5Ac(a2-3)Gal(b1-4)GlcNAc(b1-2)[Neu5Ac(a2-3)Gal(b1-4)GlcNAc(b1-4)]Man(a1-3)[GlcNAc(b1-4)][Neu5Ac(a2-3)Gal(b1-4)GlcNAc(b1-2)[Neu5Ac(a2-3)Gal(b1-4)GlcNAc(b1-6)]Man(a1-6)]Man(b1-4)GlcNAc(b1-4)GlcNAc
# Procedure, shortened: as §1
# [15] = target: Neu5Ac(a2-3)Gal(b1-4)GlcNAc(b1-2)[Neu5Ac(a2-3)Gal(b1-4)GlcNAc(b1-4)]Man(a1-3)[GlcNAc(b1-4)][Neu5Ac(a2-3)Gal(b1-4)GlcNAc(b1-4)Man(a1-6)]Man(b1-4)GlcNAc(b1-4)GlcNAc
# Procedure, shortened: as §1
# [16] = target: Neu5Ac(a2-3)Gal(b1-4)GlcNAc(b1-2)[Neu5Ac(a2-3)Gal(b1-4)GlcNAc(b1-6)]Man(a1-6)[Neu5Ac(a2-3)Gal(b1-4)GlcNAc(b1-2)Man(a1-3)]Man(b1-4)GlcNAc(b1-4)GlcNAc
# Procedure, shortened: as §1
# [17] = target: Neu5Ac(a2-3)Gal(b1-4)GlcNAc(b1-2)[Neu5Ac(a2-3)Gal(b1-4)GlcNAc(b1-6)]Man(a1-6)[Neu5Ac(a2-3)Gal(b1-4)GlcNAc(b1-2)Man(a1-3)][GlcNAc(b1-4)]Man(b1-4)GlcNAc(b1-4)GlcNAc
# Procedure, shortened: as §1
# [18] = target: Neu5Ac(a2-3)Gal(b1-4)GlcNAc(b1-3)Gal
# Procedure, shortened: as §1
# [19] = target: Neu5Ac(a2-3)Gal(b1-4)GlcNAc(b1-3)Gal(b1-3)GlcNAc
# Procedure, shortened: as §1
# [20] = target: Neu5Ac(a2-3)Gal(b1-4)GlcNAc(b1-3)Gal(b1-4)GlcNAc
# Procedure, shortened: as §1
# [21] = target: Neu5Ac(a2-3)Gal(b1-4)GlcNAc(b1-3)Gal(b1-4)GlcNAc(b1-2)Man(a1-3)[Neu5Ac(a2-3)Gal(b1-4)GlcNAc(b1-3)Gal(b1-4)GlcNAc(b1-2)Man(a1-6)]Man(b1-4)GlcNAc(b1-4)GlcNAc
# Procedure, shortened: as §1
# [22] = target: Neu5Ac(a2-3)Gal(b1-4)GlcNAc(b1-3)Gal(b1-4)GlcNAc(b1-3)Gal(b1-4)GlcNAc
# Procedure, shortened: as §1
# [23] = target: Neu5Ac(a2-3)Gal(b1-4)GlcNAc(b1-3)Gal(b1-4)GlcNAc(b1-3)Gal(b1-4)GlcNAc(b1-2)Man(a1-3)[Neu5Ac(a2-3)Gal(b1-4)GlcNAc(b1-3)Gal(b1-4)GlcNAc(b1-3)Gal(b1-4)GlcNAc(b1-2)Man(a1-6)]GalNAc
# Procedure, shortened: as §1
# [24] = target: Neu5Ac(a2-3)Gal(b1-4)GlcNAc(b1-3)Gal(b1-4)GlcNAc(b1-3)GalNAc
# Procedure, shortened: as §1
# [25] = target: Neu5Ac(a2-3)Gal(b1-4)GlcNAc(b1-3)Gal(b1-4)GlcNAc(b1-3)[Neu5Ac(a2-3)Gal(b1-4)GlcNAc(b1-3)Gal(b1-4)GlcNAc(b1-6)]GalNAc
# Procedure, shortened: as §1
# [26] = target: Neu5Ac(a2-3)Gal(b1-4)GlcNAc(b1-3)Gal(b1-4)GlcNAc(b1-6)[Gal(b1-3)]GalNAc
# Procedure, shortened: as §1
# [27] = target: Neu5Ac(a2-3)Gal(b1-4)GlcNAc(b1-3)Gal(b1-4)[Fuc(a1-3)]GlcNAc
# Procedure, shortened: as §1
# [28] = target: Neu5Ac(a2-3)Gal(b1-4)GlcNAc(b1-3)GalNAc
# Procedure, shortened: as §1
# [29] = target: Neu5Ac(a2-3)Gal(b1-4)GlcNAc(b1-3)[Neu5Ac(a2-3)Gal(b1-4)GlcNAc(b1-6)]GalNAc
# Procedure, shortened: as §1
binder,measurement,setting,value
B1,glycan array binding signal (z-score),[1],-0.052
same,glycan array binding signal (z-score),[2],0.496
same,glycan array binding signal (z-score),[3],1.46
same,glycan array binding signal (z-score),[4],-0.721
same,glycan array binding signal (z-score),[5],0.105
same,glycan array binding signal (z-score),[6],0.395
same,glycan array binding signal (z-score),[7],-1.08
same,glycan array binding signal (z-score),Neu5Ac(a2-3)Gal(b1-4)Glc,-0.868
same,glycan array binding signal (z-score),[8],-0.18
same,glycan array binding signal (z-score),[9],-0.048
same,glycan array binding signal (z-score),[10],0.058
same,glycan array binding signal (z-score),[11],-0.397
same,glycan array binding signal (z-score),[12],-0.571
same,glycan array binding signal (z-score),[13],-0.704
same,glycan array binding signal (z-score),[14],-0.336
same,glycan array binding signal (z-score),[15],0.264
same,glycan array binding signal (z-score),[16],0.106
same,glycan array binding signal (z-score),[17],-0.794
same,glycan array binding signal (z-score),[18],0.173
same,glycan array binding signal (z-score),[19],0.111
same,glycan array binding signal (z-score),[20],-1.24
same,glycan array binding signal (z-score),[21],-0.2
same,glycan array binding signal (z-score),[22],-0.527
same,glycan array binding signal (z-score),[23],1.75
same,glycan array binding signal (z-score),[24],-0.04
same,glycan array binding signal (z-score),[25],-0.264
same,glycan array binding signal (z-score),[26],-0.414
same,glycan array binding signal (z-score),[27],-0.099
same,glycan array binding signal (z-score),[28],-0.056
same,glycan array binding signal (z-score),[29],-0.912

# No new results follow: entries from further up.
binder,measurement,setting,value
B1,glycan array binding signal (z-score),Neu5Ac(a2-3)Gal(b1-4)Glc,-0.868
same,glycan array binding signal (z-score),[8],-0.18
